Test results taken from patent US9103790B2, “Linker for unimolecular FRET biosensor based on principle of fluorescence resonance energy transfer” (KYOTO UNIVERSITY, priority 2010, dated 2015).

System: Akt
Test: Eevee-Akt FRET/CFP fluorescence ratio at the basal state in COS7 cells
Type: cell-based, monkey
Conditions: compared with 72-Gly linker

B1: EV116: EV linker polypeptide, SEQ ID NO: 18 (protein)
chain: SAGGSAGGSAGGSAGGSAGGSGSAGGSAGGSTSAGGSAGGSAGGSAGGSAGGSGSAGGSAGGSTSAGGSAGGSAGGSAGGSAGGSGSAGGSAGGSTSAGGSAGGSAGGSAGGSAGG
modifications: A 116 amino acid linker
- FRET at the basal state (FRET/CFP fluorescence ratio): lower FRET at the basal state
- FRET at the basal state (FRET/CFP fluorescence ratio) (listed as 116 a.a. EV linker): significantly reduces the basal state
